In PMC8894357 (2022):
These are yes or no findings as the source states them, for the method shown. Some entries that bind do so weakly or less than the wild type. For some assays here: Sequences can lack the tags named with a protein.

Legend:
[1] = target: T1, αE-catenin, monomeric fraction (mouse, full length, His(6x) tagged) (mouse), P26231; experiment: SEC; HiLoad Superdex 200, 25 mM Tris pH 7.5, 150 mM NaCl, 1 mM DTT; monomeric and homodimeric fractions pooled separately; both purified; settings: remark: other sources report otherwise
T1 chain: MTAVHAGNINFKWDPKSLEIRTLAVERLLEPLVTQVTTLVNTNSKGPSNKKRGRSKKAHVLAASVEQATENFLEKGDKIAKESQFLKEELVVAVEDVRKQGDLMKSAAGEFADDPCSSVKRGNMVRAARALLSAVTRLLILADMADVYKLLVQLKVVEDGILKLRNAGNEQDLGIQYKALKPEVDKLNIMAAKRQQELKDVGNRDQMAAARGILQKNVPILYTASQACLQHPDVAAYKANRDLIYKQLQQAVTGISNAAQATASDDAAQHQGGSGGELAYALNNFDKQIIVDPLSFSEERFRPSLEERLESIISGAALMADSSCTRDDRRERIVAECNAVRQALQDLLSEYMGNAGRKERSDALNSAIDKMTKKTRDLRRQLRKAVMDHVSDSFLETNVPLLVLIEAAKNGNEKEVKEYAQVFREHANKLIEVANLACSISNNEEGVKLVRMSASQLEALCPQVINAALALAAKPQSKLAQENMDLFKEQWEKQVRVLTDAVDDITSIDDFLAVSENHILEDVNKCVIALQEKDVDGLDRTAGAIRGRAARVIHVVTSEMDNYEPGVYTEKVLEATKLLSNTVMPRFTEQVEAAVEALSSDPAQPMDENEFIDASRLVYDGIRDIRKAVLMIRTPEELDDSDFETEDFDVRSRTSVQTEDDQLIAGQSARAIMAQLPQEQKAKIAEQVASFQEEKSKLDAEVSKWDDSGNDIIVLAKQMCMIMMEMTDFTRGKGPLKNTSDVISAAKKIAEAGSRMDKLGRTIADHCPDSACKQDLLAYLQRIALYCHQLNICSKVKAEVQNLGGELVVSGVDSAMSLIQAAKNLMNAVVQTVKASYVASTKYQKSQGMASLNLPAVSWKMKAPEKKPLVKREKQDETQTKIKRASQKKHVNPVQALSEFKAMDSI

[2] = target: T2, Human β-catenin, GST tagged (human, UniProt P35222 1-781); experiment: ultrafast force-clamp spectroscopy (optical tweezers); single α-β-catenin heterodimer: β-catenin 80 μg/ml on the nitrocellulose-coated silica bead, then αE-catenin 4 μg/ml for 5 min; F-actin dumbbell under constant force, one dumbbell; 20 mM MOPS pH 7.2, 50 mM KCl, 1 mM MgCl2, 0.1 mM EGTA, 20 mM DTT; both purified
T2 chain: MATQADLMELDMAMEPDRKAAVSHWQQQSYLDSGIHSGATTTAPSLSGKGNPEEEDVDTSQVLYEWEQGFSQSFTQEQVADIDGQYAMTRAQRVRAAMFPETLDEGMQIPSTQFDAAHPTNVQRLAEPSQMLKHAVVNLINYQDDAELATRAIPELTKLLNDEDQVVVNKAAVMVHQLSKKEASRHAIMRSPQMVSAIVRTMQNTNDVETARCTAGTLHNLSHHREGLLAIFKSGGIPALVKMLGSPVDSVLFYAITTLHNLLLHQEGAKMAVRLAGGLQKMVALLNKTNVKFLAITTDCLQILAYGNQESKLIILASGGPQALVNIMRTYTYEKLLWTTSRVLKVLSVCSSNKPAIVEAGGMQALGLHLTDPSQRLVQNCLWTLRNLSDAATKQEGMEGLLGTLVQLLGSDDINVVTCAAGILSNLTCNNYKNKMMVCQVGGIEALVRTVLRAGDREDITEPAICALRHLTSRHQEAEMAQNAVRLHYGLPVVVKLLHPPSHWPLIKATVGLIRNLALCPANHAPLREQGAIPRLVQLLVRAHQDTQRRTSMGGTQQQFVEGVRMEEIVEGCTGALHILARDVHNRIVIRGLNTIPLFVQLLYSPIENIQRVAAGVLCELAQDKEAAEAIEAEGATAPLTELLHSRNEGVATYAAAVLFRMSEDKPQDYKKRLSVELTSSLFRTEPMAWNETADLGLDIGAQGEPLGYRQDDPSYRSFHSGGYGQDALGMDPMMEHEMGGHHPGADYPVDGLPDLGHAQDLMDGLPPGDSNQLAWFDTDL

- binding [1]: binds
- binding [2]: binds
B1: αE-catenin, monomeric fraction (mouse, full length, His(6x) tagged) (natural protein)
chain: T1 chain
